The values below come from the supplement of paper PMC4635364.

Test [1] relates to ReNCell VM. Put plainly: neuronal differentiation score (DCX+ cell fraction vs untreated, manual image score) (score (-3 to 3)); higher = more neuronal differentiation. The conditions noted are these: 2 uM, 2 weeks.
The test system of test [2] is ReNCell VM. Nature of the test: dopaminergic neuron differentiation score (TH+ cell fraction vs untreated, manual image score) (score (0 to 3)); higher = more TH+ dopaminergic neuron differentiation. To be noted: 2 uM, 4 weeks, BDNF 10 ng/ml + GDNF 10 ng/ml.

Each structure is given as a SMILES string. The list shows a part of the results. This data set is noisy: repeats of one test often differ as much as different tests do.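 Cells: ReNCell VM human fetal ventral-midbrain neural progenitors, differentiated mitogen-free. Blinded raters compared doublecortin-stained (early neurons) or tyrosine hydroxylase-stained (dopaminergic neurons) images with untreated wells, where 0 means no change. After repeats and both raters were averaged, compounds scoring 2 or above became hits for retesting.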

As to `C[C@]1(C(=O)O)CCC[C@]2(C)c3cc(O)ccc3CC[C@@H]12` [Podocarpic acid], the neuronal differentiation score in the test on ReNCell VM [1] (library: Phytochemical) is inactive: 0. Besides, the “dopaminergic neuron differentiation score” value in the test on ReNCell VM [2] (library: Phytochemical) was inactive: 0.

For the molecule `COc1cccc(C2(O)CCCCC2CN(C)C)c1` (centres undefined), the neuronal differentiation score in the test with ReNCell VM [1] (library: Spectrum) is inactive: 0. In addition, the “dopaminergic neuron differentiation score” value with ReNCell VM [2] (library: Spectrum) is inactive: 0.

Turning to `COC1(C[S@+]([O-])c2ccccc2)CCN(CCc2c[nH]c3ccc(F)cc23)CC1`, in the test on ReNCell VM [1] (library: Tocriscreen), the neuronal differentiation score is inactive: 0. Besides, in the test on ReNCell VM [2] (library: Tocriscreen), the “dopaminergic neuron differentiation score” value was inactive: 0.

For `C[N+]12CC[C@@]34c5ccccc5N5C(=O)C[C@@H]6OCC=C(C1)[C@H](C[C@@H]32)[C@@H]6[C@H]54` (some centres undefined), in the test on ReNCell VM [1] (library: Spectrum), the neuronal differentiation score was inactive: 0. Besides, the “dopaminergic neuron differentiation score” value with ReNCell VM [2] (library: Spectrum) was inactive: 0.

With `NCCc1c[nH]c2ccc(O)cc12` [Serotonin], the neuronal differentiation score in the test on ReNCell VM [1] (library: Tocriscreen) was inactive: 0. For the same molecule, in the test with ReNCell VM [2] (library: Tocriscreen), the “dopaminergic neuron differentiation score” value is inactive: 0.

In the case of `CC[C@@H](C(N)=O)N1CCCC1=O` [Levetiracetam], the neuronal differentiation score with ReNCell VM [1] (library: Prestwick) is inactive: 0. For the same molecule, the “dopaminergic neuron differentiation score” value in the test on ReNCell VM [2] (library: Prestwick) was inactive: 0.

For the molecule `N#C/C(=C\c1ccc(O)cc1)C(=O)O` [alpha-CYANO-4-HYDROXYCINNAMIC ACID], in the test with ReNCell VM [1] (library: Spectrum), the neuronal differentiation score was inactive: 0. Further, the “dopaminergic neuron differentiation score” value in the test with ReNCell VM [2] (library: Spectrum) is inactive: 0.

Take `O=C1CCCN1CC#CCN1CCCC1` [Oxotremorine sesquifumarate]: the neuronal differentiation score in the test with ReNCell VM [1] (library: Tocriscreen) was inactive: 0. Besides, in the test on ReNCell VM [2] (library: Tocriscreen), the “dopaminergic neuron differentiation score” value was inactive: 0.

Turning to `O=C(O)CCCc1ccc(N(CCCl)CCCl)cc1`, the neuronal differentiation score with ReNCell VM [1] (library: Spectrum) is inactive: 0. Also, the “dopaminergic neuron differentiation score” value with ReNCell VM [2] (library: Spectrum) was inactive: 0.

On to `CCOP(=S)(OCC)Oc1cc(C)nc(C(C)C)n1`, for which the neuronal differentiation score with ReNCell VM [1] (library: Spectrum) is inactive: 0. Besides, in the test on ReNCell VM [2] (library: Spectrum), the “dopaminergic neuron differentiation score” value is inactive: 1.

As to `CN1[C@@H]2CC[C@H]1C[C@@H](OC(c1ccccc1)c1ccccc1N)C2` (some centres undefined) [Aminobenztropine], in the test on ReNCell VM [1] (library: LOPAC), the neuronal differentiation score was inactive: 1. Moreover, the “dopaminergic neuron differentiation score” value with ReNCell VM [2] (library: LOPAC) was inactive: 0.

As to `C[C@@H](CO)NC(=O)[C@@H]1C=C2c3cccc4[nH]cc(c34)C[C@H]2N(C)C1` [Ergobasine], the neuronal differentiation score with ReNCell VM [1] (library: Phytochemical) was inactive: 0. For the same molecule, the “dopaminergic neuron differentiation score” value in the test with ReNCell VM [2] (library: Phytochemical) was inactive: 0.
